For part of these data: Part of at least one peptide drawing is inferred or uncertain, most often the ends. At least one structure is not confirmed: it was looked up by name or label, or the drawing left a doubt.
Key:
786-O [1] = experiment: Cytotoxicity in vitro in the presence and absence of elastase (MTT assay); assay type: cell-based, human; conditions: 786-O cells, 72 h
Description: (§1) Cultivation of cells was performed according to standard procedures with the media recommended by the provider. The cells, in a total volume of 100 μL, were seeded in a 96-well plate with a white bottom (#3610). After a 24 h incubation period at 37° C. and 5% CO2, the medium was exchanged by adding 90 μL fresh medium. The treatment started by adding the test compound in 10 μL of culture medium to the cells in triplicates. Concentrations ranging from 10^−5 M to 10^−13 M were chosen. Two identically treated sets of samples were prepared. One set was treated with the test compound alone, whereas to the second set the compound and 10 nM elastase was added followed by a 72 h incubation period at 37° C. and 5% CO2. The proliferation was detected using the MTT assay (ATCC). At the end of the incubation period the MTT reagent was added to all samples for 4h. Lysis of the cells followed by addition of the detergent was done overnight. The formed dye was detected at 570 nm. The proliferation of untreated but otherwise identically handled cells was define as the […].

HT29 [2] = experiment: as above; assay type: cell-based, human; conditions: HT29 cells, 72 h
Description: as §1

NCI H292 [3] = experiment: as above; assay type: cell-based, human; conditions: NCI H292 cells, 72 h
Description: as §1

SUM149 [4] = experiment: as above; assay type: cell-based; conditions: SUM149 cells, 72 h
Description: as §1

avb3 = experiment: EC50 [nM]
Description: Table printed on a drawing sheet, FIG. 4
Head of the field: EC50 [nM]
The patent's description of the figure: FIG. 4: avb3 binding of selected examples and EC50 values
First copying reader's note: EC50 values relate to the αvβ3 binding assay plotted next to the table; R^2 is the goodness of fit of the curve.
Where the first naming reader finds the target: description_of_the_figure: FIG. 4: avb3 binding of selected examples and EC50 values

786-O [5] = experiment: Cytotoxicity assay (Version 2), automated, AC50; assay type: cell-based, human; conditions: 786-O cells, Version 2, activity concentration at -50%, 4 parameter Hill-fit
Description: as §1
(§2) The Cytotoxicity assay (Version 2) was performed as above described. Some changes were applied as the assays were performed in an automated fashion and the IC50 values determination was changed. Here the change in metabolic activity of the cells, in percent, was calculated by normalization of the measured values to the absorbance values of medium containing wells without cells (=−100% ) and the absorbance of the DMSO-treated cells (=0% ). AC50 values (activity concentration at -50% o) were determined by means of a 4 parameter Hill-fit using GeneData Screener software.

HT29 [6] = experiment: Cytotoxicity assay (Version 2), automated, AC50; assay type: cell-based, human; conditions: HT29 cells, Version 2, activity concentration at -50%, 4 parameter Hill-fit
Description: as §1, §2

NCI H292 [7] = experiment: Cytotoxicity assay (Version 2), automated, AC50; assay type: cell-based, human; conditions: NCI H292 cells, Version 2, activity concentration at -50%, 4 parameter Hill-fit
Description: as §1, §2

SUM149 [8] = experiment: Cytotoxicity assay (Version 2), automated, AC50; assay type: cell-based; conditions: SUM149 cells, Version 2, activity concentration at -50%, 4 parameter Hill-fit
Description: as §1, §2

Row | SMILES | IC50 (786-O [1]; compound alone (no elastase)) | IC50 (786-O [1]; with 10 nM elastase) | IC50 (HT29 [2]; compound alone (no elastase)) | IC50 (HT29 [2]; with 10 nM elastase) | IC50 (NCI H292 [3]; compound alone (no elastase)) | IC50 (NCI H292 [3]; with 10 nM elastase) | IC50 (SUM149 [4]; compound alone (no elastase)) | IC50 (SUM149 [4]; with 10 nM elastase) | EC50 (avb3) | AC50 (786-O [5]; no elastase) | AC50 (786-O [5]; with elastase) | AC50 (HT29 [6]; no elastase) | AC50 (HT29 [6]; with elastase) | AC50 (NCI H292 [7]; no elastase) | AC50 (NCI H292 [7]; with elastase) | AC50 (SUM149 [8]; no elastase) | AC50 (SUM149 [8]; with elastase)
1 | CCCNC(=O)Nc1cccc(S(=O)(=O)Nc2cccc([C@H](CC(=O)O)NC(=O)Nc3ccc(NC(=O)NCCN(C)CCN(C)CCN(C)CC(=O)NCC(=O)N4CCC[C@H]4C(=O)N[C@H](C(=O)O[C@]4(CC)C(=O)OCc5c4cc4n(c5=O)Cc5c-4nc4ccccc4c5CC)C(C)C)cc3)c2)c1 [Compound B3, (4S)-4,11-diethyl-3,14-dioxo-3,4,12,14-tetrahydro-1H-pyrano[3′,4′:6,7]indolizino[1,2-b]quinolin-4-yl N-{2-[{2-[{2-[({4-[({(1S)-2-carboxy-1-[3-({3-[(propylcarbamoyl)amino]benzene-1-sulfonyl}amino)phenyl]ethyl}carbamoyl)amino]phenyl}carbamoyl)amino]ethyl}(methyl)amino]ethyl}(methyl)amino]ethyl}-N-methylglycylglycyl-L-prolyl-L-valinate] | 1.1 to 10 nM | 0.01 to 0.1 nM | 1.1 to 10 nM | 0.01 to 0.1 nM | 1.1 to 10 nM | 0.01 to 0.1 nM | 1.1 to 10 nM | < 0.01 nM | – | – | – | – | – | – | – | – | –
2 | CCCNC(=O)Nc1cccc(S(=O)(=O)Nc2cccc([C@H](CC(=O)O)NC(=O)Nc3ccc(NC(=O)NCCN(C)CCN(C)CCN(C)CC(=O)N[C@@H](CC(N)=O)C(=O)N4CCC[C@H]4C(=O)N[C@H](C(=O)O[C@]4(CC)C(=O)OCc5c4cc4n(c5=O)Cc5c-4nc4ccccc4c5CC)C(C)C)cc3)c2)c1 [Compound B5, (4S)-4,11-diethyl-3,14-dioxo-3,4,12,14-tetrahydro-1H-pyrano[3′,4′:6,7]indolizino[1,2-b]quinolin-4-yl N-{2-[{2-[{2-[({4-[({(1S)-2-carboxy-1-[3-({3-[(propylcarbamoyl)amino]benzene-1-sulfonyl}amino)phenyl]ethyl}carbamoyl)amino]phenyl}carbamoyl)amino]ethyl}(methyl)amino]ethyl}(methyl)amino]ethyl}-N-methylglycyl-L-asparaginyl-L-prolyl-L-valinate] | 1.1 to 10 nM | 0.01 to 0.1 nM | 10 to 100 nM | 0.01 to 0.1 nM | 1.1 to 10 nM | 0.01 to 0.1 nM | 0.1 to 1 nM | < 0.01 nM | 1410 nM | – | – | – | – | – | – | – | –
3 | CCCNC(=O)Nc1cccc(S(=O)(=O)Nc2cccc([C@@H](CC(=O)O)NC(=O)Nc3ccc(NC(=O)NCCOCCOCCOCCC(=O)N[C@@H](CCCCNC(=O)CCCC(=O)NCCOCCOCCOCCC(=O)N[C@@H](CC(=O)O)C(=O)N4CCC[C@H]4C(=O)N[C@H](C(=O)O[C@]4(CC)C(=O)OCc5c4cc4n(c5=O)Cc5c-4nc4ccccc4c5CC)C(C)C)C(=O)NCCC(=O)O)cc3)c2)c1 [Compound E1] | – | – | – | – | – | – | – | – | – | 110 to 1000 nM | ≤ 10 nM | 110 to 1000 nM | 11 to 100 nM | 110 to 1000 nM | ≤ 10 nM | 110 to 1000 nM | ≤ 10 nM
4 | CCCNC(=O)Nc1cccc(S(=O)(=O)Nc2cccc([C@@H](CC(=O)O)NC(=O)Nc3ccc(NC(=O)NCCOCCOCCOCCC(=O)N[C@@H](CCCCNC(=O)CCCC(=O)NCCOCCOCCOCCC(=O)N[C@@H](CC(=O)O)C(=O)N4CCC[C@H]4C(=O)N[C@H](C(=O)O[C@]4(CC)C(=O)OCc5c4cc4n(c5=O)Cc5c-4nc4ccccc4c5CC)C(C)C)C(=O)NCCCCCCCC(=O)O)cc3)c2)c1 [Compound E2] | – | – | – | – | – | – | – | – | – | 110 to 1000 nM | ≤ 10 nM | 110 to 1000 nM | 11 to 100 nM | 110 to 1000 nM | ≤ 10 nM | 110 to 1000 nM | ≤ 10 nM

Reference: patent US20240423973A1, “COMPOUNDS, PHARMACEUTICAL COMPOSITIONS, AND METHODS FOR THE TREATMENT, PREVENTION, OR MANAGEMENT OF HYPERPROLIFERATIVE DISORDERS” (VINCERX PHARMA GMBH, priority 2021, published 2024)
